Where two headings read alike, the source gives them in different places.

Here are results for 2 compounds from patent US8614247B2, “Methods for preventing, attenuating or treating pulmonary hypertension using a serotonin transporter inhibitor, and pharmaceutical compositions for the treatment thereof” (Institut National de la Sante et de la Recherche Medicale, priority 2003, dated 2013).

For this data set, the system named is mice exposed to chronic hypoxia. In kind it is in vivo, mice (C57BL6/J). The following applies: for LV + S weight: two-week treatment under continuous hypoxia; for LV+S weight in hypoxic mice versus mice under normoxic conditions: end of exposure to chronic hypoxia. As for the experimental part: All experiments were performed using adult male mice (C57BL6/J, 8 weeks old) in conformity with the institutional guidelines that are in compliance with national and international laws and policies. […] To establish the hypoxic environment, the chamber was flushed with a mixture of room air and nitrogen, and the gas was recirculated. The chamber environment was monitored using an oxygen analyzer (Servomex OA150, Crowborough, England). Carbon dioxide was removed by soda lime granules, and excess humidity was prevented by cooling the recirculation circuit. The chamber temperature was maintained at 22-24° C. The chamber was opened every other day for 1 hour to clean the cages and replenish food and water supplies. Normoxic mice were kept in the same room, with the same light-dark cycle. […] After incision of the abdomen and diaphragm, a 26-gauge needle connected to a pressure transducer was inserted into the right ventricle, and RVSP was recorded immediately. Blood was then sampled for hematocrit determination. […] The right ventricle (RV) was dissected from the left ventricle+septum (LV+S), and these dissected samples were weighed. The lungs were fixed by intratracheal infusion of 4% aqueous buffered formalin at a pressure of 23 cm H2O. The entire specimen was immersed in a bath of the same fixative for one week. A midsagittal slice of the right lung including the apical, azygous and diaphragmatic lobes was processed for paraffin embedding. Sections (5 μm thick) were cut for light microscopy and stained with hematoxylin-phloxin-saffron and orcein-picroindigo-carmine. In each mouse, a total of 50-60 […] vessels accompanying either alveolar ducts or alveoli were analyzed by an observer blinded to treatment. Each vessel was categorized as nonmuscular (no evidence of any vessel wall muscularization), partially muscular (SMCs identifiable in less than three-fourths of the vessel circumference), or fully muscular (SMCs in more than three-fourths of the vessel circumference). […] The percentage of pulmonary vessels in each muscularization category was determined by dividing the number of vessels in that category by the total number counted in the same experimental group. […] The animals were treated once a day during the two-week exposure to hypoxia.

As to `COc1ccc(NC(=O)c2ccc(-c3ccc(-c4noc(C)n4)cc3C)cc2)cc1N1CCN(C)CC1` [GR127935, 2′-methyl-4′-(5-methyl-[1,2,4]oxadiazol-3-yl)-biphenyl-4-carboxylic acid [4-methoxy-3-(4-methyl-piperazine-1-yl)-phenyl]amide], the “LV+S weight in hypoxic mice versus mice under normoxic conditions” value is reported as “did not differ”. Further, the “LV + S weight” value (2 mg/kg/day) worked out at 73.4 ± 3.9 mg. The “LV + S weight” value (10 mg/kg/day) turned out to be 74.0 ± 4.8 mg.
Regarding `CNCCC(Oc1ccc(C(F)(F)F)cc1)c1ccccc1` (stereo not shown) [fluoxetine], the “LV+S weight in hypoxic mice versus mice under normoxic conditions” value is recorded as “did not differ”.
